Laboratory results: the supplement of paper PMC3741180, “A Novel High Throughput Biochemical Assay to Evaluate the HuR Protein-RNA Complex Formation” (PLoS ONE, 2013)
Some of the results follow. Single values are uncertain here, since repeats match poorly.

By UniProt entry, the sequences of proteins in these tests, tags left out.
UniProt Q15717, whole entry: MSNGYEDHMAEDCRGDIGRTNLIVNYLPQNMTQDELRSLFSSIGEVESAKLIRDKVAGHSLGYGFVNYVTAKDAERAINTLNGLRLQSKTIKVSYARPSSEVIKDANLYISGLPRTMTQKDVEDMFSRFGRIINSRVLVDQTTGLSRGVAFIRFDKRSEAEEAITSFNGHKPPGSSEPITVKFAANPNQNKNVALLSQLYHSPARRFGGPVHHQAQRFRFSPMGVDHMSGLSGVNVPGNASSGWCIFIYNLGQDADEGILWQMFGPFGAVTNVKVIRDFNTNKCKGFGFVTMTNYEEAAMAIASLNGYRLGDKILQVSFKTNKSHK

The molecules below were run against HuR (ELAVL1) - TNFalpha ARE RNA complex (UniProt Q15717) (assay: AlphaScreen HuR-RNA complex signal Z-score relative to positive controls (secondary screen) (Z-score (SD units of positive control)); higher = more complex signal). Details: screen stage: secondary re-screen.

Q: Which “AlphaScreen HuR-RNA complex signal Z-score” value does the source give for CN(C)CCN(Cc1ccccc1)c1ccccn1 here?
A: Its value is 1.91.

Q: With Nc1cc(C(Cl)=C(Cl)Cl)c(S(N)(=O)=O)cc1S(N)(=O)=O as the molecule, how does the “AlphaScreen HuR-RNA complex signal Z-score” value read?
A: The value was 1.33.

Q: Which “AlphaScreen HuR-RNA complex signal Z-score” value does the source give for C=CC(C1=CC(=O)C(OC)=CC1=O)c1ccc(O)cc1 (configuration not stated) here?
A: The value was 1.32.

Q: For C=CC1=C(C(=O)O)N2C(=O)[C@@H](NC(=O)/C(=N\O)c3csc(N)n3)[C@H]2SC1, which “AlphaScreen HuR-RNA complex signal Z-score” value is on record?
A: Its value is 1.31.

Q: CO/N=C(\C(=O)N[C@@H]1C(=O)N2C(C(=O)O)=C(COC(C)=O)CS[C@H]12)c1csc(N)n1 was tested. Which “AlphaScreen HuR-RNA complex signal Z-score” value did it give?
A: Its value is 0.264.

Q: Which “AlphaScreen HuR-RNA complex signal Z-score” value does the source give for Oc1ccc(Cl)c2cccnc12 here?
A: The value was 0.491.

Q: For COC(=O)Nc1nc2cc([S+]([O-])c3ccccc3)ccc2[nH]1 (configuration not stated), which “AlphaScreen HuR-RNA complex signal Z-score” value is on record?
A: Its value is -0.284.

Q: With CC(=O)OCC1=C(C(=O)O)N2C(=O)[C@@H](NC(=O)Cc3cccs3)[C@H]2SC1 as the molecule, how does the “AlphaScreen HuR-RNA complex signal Z-score” value read?
A: The value was 0.844.

Q: With CC(COc1ccccc1)NC(C)C(O)c1ccc(O)cc1 (configuration not stated) as the molecule, how does the “AlphaScreen HuR-RNA complex signal Z-score” value read?
A: Its value is 1.02.

Q: O=C(O)c1cc(-c2ccc(F)cc2F)ccc1O was tested. Which “AlphaScreen HuR-RNA complex signal Z-score” value did it give?
A: The value was 0.616.

Q: With N[C@H]1C(O)O[C@H](CO)[C@@H](O)[C@@H]1O (some centres not stated) as the molecule, how does the “AlphaScreen HuR-RNA complex signal Z-score” value read?
A: The value was 0.357.

Q: Which “AlphaScreen HuR-RNA complex signal Z-score” value does the source give for CO/N=C(\C(=O)N[C@@H]1C(=O)N2C(C(=O)OCOC(=O)C(C)(C)C)=C(/C=C\c3scnc3C)CS[C@H]12)c1csc(N)n1 here?
A: Its value is 0.0455.

Q: Cc1ccc(N(CC2=NCCN2)c2cccc(O)c2)cc1 was tested. Which “AlphaScreen HuR-RNA complex signal Z-score” value did it give?
A: The value was 1.54.

Q: With CCCCCCCCCCC[C@@H](C[C@@H]1OC(=O)[C@H]1CCCCCC)OC(=O)[C@H](CC(C)C)NC=O as the molecule, how does the “AlphaScreen HuR-RNA complex signal Z-score” value read?
A: Its value is -7.29.

Q: With C#C[C@]1(O)CC[C@H]2[C@@H]3CCC4=Cc5oncc5C[C@]4(C)[C@H]3CC[C@@]21C as the molecule, how does the “AlphaScreen HuR-RNA complex signal Z-score” value read?
A: Its value is 1.32.

Q: With CCCCc1nc(Cl)c(CO)n1Cc1ccc(-c2ccccc2-c2nnn[nH]2)cc1 as the molecule, how does the “AlphaScreen HuR-RNA complex signal Z-score” value read?
A: The value was 2.5.

Q: Which “AlphaScreen HuR-RNA complex signal Z-score” value does the source give for CN1CCN(CC/C=C2/c3ccccc3Sc3ccc(S(=O)(=O)N(C)C)cc32)CC1 here?
A: Its value is 1.69.

Q: For CN(C)CCOC(c1ccccc1)c1ccccc1, which “AlphaScreen HuR-RNA complex signal Z-score” value is on record?
A: The value was 1.06.

Q: How did the “AlphaScreen HuR-RNA complex signal Z-score” value turn out when OC[C@@H](O)[C@@H](O)[C@H](O)[C@H](O)CO was run?
A: Its value is 0.573.

Q: For Clc1ccc2c(c1)CCc1cccnc1C2=C1CCNCC1, which “AlphaScreen HuR-RNA complex signal Z-score” value is on record?
A: Its value is 0.811.

Q: With O=C(O)c1cn(-c2ccc(F)cc2)c2cc(N3CCNCC3)c(F)cc2c1=O as the molecule, how does the “AlphaScreen HuR-RNA complex signal Z-score” value read?
A: The value was -0.00228.

Q: How did the “AlphaScreen HuR-RNA complex signal Z-score” value turn out when NS(=O)(=O)c1cc2c(cc1Cl)NC(C(Cl)Cl)NS2(=O)=O (configuration not stated) was run?
A: Its value is 1.08.

Q: For CN(C)CC[C@@H](c1ccc(Cl)cc1)c1ccccn1, which “AlphaScreen HuR-RNA complex signal Z-score” value is on record?
A: The value was 1.22.

Q: How did the “AlphaScreen HuR-RNA complex signal Z-score” value turn out when CC(C(=O)O)c1ccc(-c2ccccc2)c(F)c1 (configuration not stated) was run?
A: Its value is 0.937.

Q: How did the “AlphaScreen HuR-RNA complex signal Z-score” value turn out when CCCCOc1ccc(C(=O)CCN2CCCCC2)cc1 was run?
A: The value was 0.145.

Q: CN(C)[C@@H]1C(O)=C(C(N)=O)C(=O)[C@@]2(O)C(O)=C3C(=O)c4c(O)ccc(Cl)c4[C@@](C)(O)[C@H]3C[C@@H]12 was tested. Which “AlphaScreen HuR-RNA complex signal Z-score” value did it give?
A: The value was 0.918.

Q: For CN(C)CCCN1c2ccccc2Sc2ccc(Cl)cc21, which “AlphaScreen HuR-RNA complex signal Z-score” value is on record?
A: The value was 0.256.

Q: How did the “AlphaScreen HuR-RNA complex signal Z-score” value turn out when CCOC(=O)[C@H](CCc1ccccc1)N[C@H]1CCc2ccccc2N(CC(=O)O)C1=O was run?
A: The value was 2.02.

Q: CN(C)CCOC(c1ccccc1)c1ccccc1.Cn1c(=O)c2[nH]c(Cl)nc2n(C)c1=O was tested. Which “AlphaScreen HuR-RNA complex signal Z-score” value did it give?
A: The value was 1.55.

Q: Which “AlphaScreen HuR-RNA complex signal Z-score” value does the source give for O=C1c2ccccc2C(=O)C1(O)C1(O)C(=O)c2ccccc2C1=O here?
A: Its value is 0.681.

Q: Which “AlphaScreen HuR-RNA complex signal Z-score” value does the source give for O=C([O-])[C@H]1/C(=C/CO)O[C@@H]2CC(=O)N21.[Li+] here?
A: The value was 1.77.

Q: NS(=O)(=O)c1cc2c(cc1C(F)(F)F)NCNS2(=O)=O was tested. Which “AlphaScreen HuR-RNA complex signal Z-score” value did it give?
A: The value was 0.626.

Q: How did the “AlphaScreen HuR-RNA complex signal Z-score” value turn out when O=c1c(O)cccc2cc(O)c(O)c(O)c12 was run?
A: The value was 0.0905.

Q: CN1CCN(C(c2ccccc2)c2ccc(Cl)cc2)CC1 (configuration not stated) was tested. Which “AlphaScreen HuR-RNA complex signal Z-score” value did it give?
A: Its value is 0.622.

Q: With CC(=O)OCC(COC(C)=O)OC(C)=O as the molecule, how does the “AlphaScreen HuR-RNA complex signal Z-score” value read?
A: Its value is 1.53.

Q: For NC[C@H]1O[C@H](O[C@H]2[C@H](O)[C@@H](O[C@H]3O[C@H](CO)[C@@H](O)[C@H](N)[C@H]3O)[C@H](N)C[C@@H]2N)[C@H](N)C[C@@H]1O, which “AlphaScreen HuR-RNA complex signal Z-score” value is on record?
A: The value was 1.72.

Q: For COc1cc(NC(C)CCCN)c2ncccc2c1 (configuration not stated), which “AlphaScreen HuR-RNA complex signal Z-score” value is on record?
A: The value was 3.29.
